PubChem BioAssay (EPA / NIEHS)
The inconclusive results got no clear call from the source; some entries with a clear call stand among them for comparison. For some assays here: Potencies of inconclusive entries are doubtful fits and often do not repeat. Activity calls are given as the source filed them. The calls were made as follows: active = hit-call score of the fitted dose curve at least 0.9, where 1 is the maximum; inconclusive = response in the unintended direction; inactive = score below 0.9.

Amino acid sequences for entries named in this document (tags omitted). A change or cut given only in a name is not applied to a line headed by its entry.
UniProt P51452: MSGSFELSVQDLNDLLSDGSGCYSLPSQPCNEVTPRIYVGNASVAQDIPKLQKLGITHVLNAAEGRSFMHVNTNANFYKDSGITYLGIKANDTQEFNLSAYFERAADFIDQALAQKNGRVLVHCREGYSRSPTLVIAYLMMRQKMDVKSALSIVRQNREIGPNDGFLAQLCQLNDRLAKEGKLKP
UniProt O15379: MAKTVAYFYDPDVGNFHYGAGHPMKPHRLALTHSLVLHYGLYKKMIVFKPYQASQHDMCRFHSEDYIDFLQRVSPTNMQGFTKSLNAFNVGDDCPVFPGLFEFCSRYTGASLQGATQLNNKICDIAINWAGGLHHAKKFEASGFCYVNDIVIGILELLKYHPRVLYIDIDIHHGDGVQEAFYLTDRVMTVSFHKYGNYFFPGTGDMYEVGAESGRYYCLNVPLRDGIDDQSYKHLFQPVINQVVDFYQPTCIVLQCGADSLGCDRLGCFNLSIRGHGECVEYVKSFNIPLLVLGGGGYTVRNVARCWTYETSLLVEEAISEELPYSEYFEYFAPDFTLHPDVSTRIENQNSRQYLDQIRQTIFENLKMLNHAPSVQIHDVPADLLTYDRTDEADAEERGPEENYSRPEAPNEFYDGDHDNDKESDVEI
UniProt P49841: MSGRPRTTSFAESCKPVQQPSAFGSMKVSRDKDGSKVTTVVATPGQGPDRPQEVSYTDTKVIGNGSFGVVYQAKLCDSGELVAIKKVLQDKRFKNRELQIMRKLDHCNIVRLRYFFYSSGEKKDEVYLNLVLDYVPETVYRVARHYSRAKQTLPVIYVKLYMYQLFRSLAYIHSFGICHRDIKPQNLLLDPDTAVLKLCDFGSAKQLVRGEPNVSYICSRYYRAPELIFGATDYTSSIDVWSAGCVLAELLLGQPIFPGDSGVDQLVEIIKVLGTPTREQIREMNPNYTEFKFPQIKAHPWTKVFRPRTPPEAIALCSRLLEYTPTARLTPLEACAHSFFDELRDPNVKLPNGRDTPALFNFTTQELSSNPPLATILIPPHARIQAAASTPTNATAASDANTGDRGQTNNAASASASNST
UniProt P27361, whole entry, looked up: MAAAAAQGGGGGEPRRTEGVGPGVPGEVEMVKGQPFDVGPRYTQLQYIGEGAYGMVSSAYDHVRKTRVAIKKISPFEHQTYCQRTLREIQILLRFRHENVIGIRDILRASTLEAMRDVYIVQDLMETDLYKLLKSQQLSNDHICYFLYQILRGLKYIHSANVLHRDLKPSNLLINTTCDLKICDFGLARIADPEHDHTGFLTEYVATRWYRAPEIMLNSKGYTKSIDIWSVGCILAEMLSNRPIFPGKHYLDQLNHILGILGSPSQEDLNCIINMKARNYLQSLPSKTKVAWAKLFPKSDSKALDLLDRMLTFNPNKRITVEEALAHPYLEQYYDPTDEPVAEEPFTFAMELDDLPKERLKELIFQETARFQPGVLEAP
UniProt P06241, whole entry, looked up: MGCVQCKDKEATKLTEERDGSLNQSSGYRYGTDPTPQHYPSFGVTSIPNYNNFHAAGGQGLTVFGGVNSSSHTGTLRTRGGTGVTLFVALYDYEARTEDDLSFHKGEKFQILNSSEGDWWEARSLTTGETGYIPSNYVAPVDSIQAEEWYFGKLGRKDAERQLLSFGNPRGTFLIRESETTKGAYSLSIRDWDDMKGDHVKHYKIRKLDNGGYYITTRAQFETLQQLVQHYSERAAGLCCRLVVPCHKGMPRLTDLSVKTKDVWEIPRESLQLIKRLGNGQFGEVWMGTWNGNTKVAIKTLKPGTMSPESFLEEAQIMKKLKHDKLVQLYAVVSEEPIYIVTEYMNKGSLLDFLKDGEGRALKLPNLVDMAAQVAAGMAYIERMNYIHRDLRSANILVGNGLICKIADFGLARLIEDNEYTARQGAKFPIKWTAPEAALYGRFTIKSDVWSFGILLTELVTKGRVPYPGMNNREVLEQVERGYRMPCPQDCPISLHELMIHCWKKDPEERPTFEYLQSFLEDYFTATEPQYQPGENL
UniProt O60674: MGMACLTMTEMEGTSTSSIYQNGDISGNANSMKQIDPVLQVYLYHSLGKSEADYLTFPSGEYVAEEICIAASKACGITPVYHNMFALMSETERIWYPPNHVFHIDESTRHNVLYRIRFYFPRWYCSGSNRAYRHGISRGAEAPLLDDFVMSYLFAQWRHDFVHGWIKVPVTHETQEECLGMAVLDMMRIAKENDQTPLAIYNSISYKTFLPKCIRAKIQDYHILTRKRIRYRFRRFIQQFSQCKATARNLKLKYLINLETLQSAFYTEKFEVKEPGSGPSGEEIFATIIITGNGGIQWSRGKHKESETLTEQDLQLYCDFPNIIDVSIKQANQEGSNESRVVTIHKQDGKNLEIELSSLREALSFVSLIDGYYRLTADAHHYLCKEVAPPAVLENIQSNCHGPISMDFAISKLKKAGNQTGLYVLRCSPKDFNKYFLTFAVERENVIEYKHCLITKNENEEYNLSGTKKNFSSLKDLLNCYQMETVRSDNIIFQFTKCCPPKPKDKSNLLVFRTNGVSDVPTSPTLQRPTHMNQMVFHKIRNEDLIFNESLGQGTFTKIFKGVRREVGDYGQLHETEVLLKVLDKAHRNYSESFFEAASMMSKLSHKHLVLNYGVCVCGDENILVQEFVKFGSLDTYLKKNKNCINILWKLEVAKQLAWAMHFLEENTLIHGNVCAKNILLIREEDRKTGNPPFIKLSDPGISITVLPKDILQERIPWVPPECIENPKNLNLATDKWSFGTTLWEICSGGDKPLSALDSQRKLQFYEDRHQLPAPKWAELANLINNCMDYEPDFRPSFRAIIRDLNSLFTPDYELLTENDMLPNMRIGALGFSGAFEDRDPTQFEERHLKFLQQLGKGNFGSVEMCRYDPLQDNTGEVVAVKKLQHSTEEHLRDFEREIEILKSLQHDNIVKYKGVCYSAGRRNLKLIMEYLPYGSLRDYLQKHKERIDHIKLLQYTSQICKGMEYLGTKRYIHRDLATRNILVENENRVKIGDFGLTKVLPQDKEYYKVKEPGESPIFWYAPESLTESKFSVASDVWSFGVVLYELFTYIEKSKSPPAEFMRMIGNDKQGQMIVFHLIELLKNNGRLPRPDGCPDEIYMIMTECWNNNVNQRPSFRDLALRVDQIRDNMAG
UniProt P07948: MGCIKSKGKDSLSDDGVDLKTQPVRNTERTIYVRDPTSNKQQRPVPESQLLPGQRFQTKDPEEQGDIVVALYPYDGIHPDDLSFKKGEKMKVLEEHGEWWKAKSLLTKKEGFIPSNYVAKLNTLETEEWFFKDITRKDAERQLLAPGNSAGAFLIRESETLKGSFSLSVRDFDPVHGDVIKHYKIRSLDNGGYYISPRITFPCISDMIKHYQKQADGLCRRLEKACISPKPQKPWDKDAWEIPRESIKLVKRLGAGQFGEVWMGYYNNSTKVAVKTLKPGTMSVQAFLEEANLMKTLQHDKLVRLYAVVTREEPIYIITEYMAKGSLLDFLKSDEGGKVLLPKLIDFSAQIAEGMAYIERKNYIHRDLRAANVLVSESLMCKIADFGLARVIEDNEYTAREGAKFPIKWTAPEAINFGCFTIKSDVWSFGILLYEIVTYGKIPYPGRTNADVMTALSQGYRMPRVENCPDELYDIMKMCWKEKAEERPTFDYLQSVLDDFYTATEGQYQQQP
UniProt P08254: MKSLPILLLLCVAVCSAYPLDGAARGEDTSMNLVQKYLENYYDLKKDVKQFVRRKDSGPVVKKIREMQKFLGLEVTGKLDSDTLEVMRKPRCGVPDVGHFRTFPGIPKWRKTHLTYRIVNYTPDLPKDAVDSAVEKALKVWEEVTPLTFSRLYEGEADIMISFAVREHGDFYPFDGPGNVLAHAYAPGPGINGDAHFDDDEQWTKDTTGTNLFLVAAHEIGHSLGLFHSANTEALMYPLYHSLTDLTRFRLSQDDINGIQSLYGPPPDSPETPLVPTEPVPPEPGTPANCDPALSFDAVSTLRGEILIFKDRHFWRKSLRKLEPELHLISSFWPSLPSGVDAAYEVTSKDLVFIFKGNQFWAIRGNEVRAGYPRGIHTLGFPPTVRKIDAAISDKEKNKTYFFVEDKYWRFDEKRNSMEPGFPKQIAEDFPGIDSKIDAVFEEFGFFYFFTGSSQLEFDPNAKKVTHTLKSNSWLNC
UniProt P09237: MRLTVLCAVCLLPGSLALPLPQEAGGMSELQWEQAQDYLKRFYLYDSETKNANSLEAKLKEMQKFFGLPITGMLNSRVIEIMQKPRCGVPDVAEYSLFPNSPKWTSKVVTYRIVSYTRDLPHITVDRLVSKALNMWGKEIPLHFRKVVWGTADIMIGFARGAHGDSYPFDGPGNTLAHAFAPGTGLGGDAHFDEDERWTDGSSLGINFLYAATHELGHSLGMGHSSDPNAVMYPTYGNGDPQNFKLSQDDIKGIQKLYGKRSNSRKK
UniProt P49137, whole entry, looked up: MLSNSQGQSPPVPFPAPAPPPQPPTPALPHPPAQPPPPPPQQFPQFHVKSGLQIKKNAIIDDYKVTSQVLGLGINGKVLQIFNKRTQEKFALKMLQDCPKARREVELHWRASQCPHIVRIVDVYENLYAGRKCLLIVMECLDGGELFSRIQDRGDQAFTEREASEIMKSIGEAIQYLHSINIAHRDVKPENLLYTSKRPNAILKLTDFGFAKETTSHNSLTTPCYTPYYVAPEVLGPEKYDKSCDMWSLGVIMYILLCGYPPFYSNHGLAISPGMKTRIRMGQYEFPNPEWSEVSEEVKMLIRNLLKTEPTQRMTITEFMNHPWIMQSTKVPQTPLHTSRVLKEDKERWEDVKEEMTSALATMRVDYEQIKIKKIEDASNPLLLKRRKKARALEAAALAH
UniProt P21709: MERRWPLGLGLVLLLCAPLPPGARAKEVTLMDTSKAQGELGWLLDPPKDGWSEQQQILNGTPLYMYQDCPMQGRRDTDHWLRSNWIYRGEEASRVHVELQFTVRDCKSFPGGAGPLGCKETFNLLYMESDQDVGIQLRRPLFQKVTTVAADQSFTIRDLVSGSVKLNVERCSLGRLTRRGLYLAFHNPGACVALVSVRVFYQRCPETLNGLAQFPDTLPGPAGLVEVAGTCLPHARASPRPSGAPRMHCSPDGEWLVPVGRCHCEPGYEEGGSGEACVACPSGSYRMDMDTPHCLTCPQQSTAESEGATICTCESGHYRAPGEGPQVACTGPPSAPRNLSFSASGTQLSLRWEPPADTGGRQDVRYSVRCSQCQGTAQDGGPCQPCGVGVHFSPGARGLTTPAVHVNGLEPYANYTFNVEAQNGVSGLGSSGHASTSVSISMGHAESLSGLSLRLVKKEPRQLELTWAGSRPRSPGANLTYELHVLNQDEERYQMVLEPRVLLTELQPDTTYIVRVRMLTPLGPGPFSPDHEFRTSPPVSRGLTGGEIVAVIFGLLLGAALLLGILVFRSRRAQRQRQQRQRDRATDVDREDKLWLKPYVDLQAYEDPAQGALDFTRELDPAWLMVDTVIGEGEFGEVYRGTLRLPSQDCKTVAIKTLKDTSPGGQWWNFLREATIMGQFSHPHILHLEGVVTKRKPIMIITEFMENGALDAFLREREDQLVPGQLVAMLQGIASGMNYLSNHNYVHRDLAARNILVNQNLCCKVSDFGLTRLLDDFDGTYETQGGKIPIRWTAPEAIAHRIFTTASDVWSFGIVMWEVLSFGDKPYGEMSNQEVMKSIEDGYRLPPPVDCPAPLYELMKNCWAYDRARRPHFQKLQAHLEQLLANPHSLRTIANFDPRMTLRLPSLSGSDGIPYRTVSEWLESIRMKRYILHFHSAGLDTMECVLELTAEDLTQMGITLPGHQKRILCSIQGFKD
UniProt P08253: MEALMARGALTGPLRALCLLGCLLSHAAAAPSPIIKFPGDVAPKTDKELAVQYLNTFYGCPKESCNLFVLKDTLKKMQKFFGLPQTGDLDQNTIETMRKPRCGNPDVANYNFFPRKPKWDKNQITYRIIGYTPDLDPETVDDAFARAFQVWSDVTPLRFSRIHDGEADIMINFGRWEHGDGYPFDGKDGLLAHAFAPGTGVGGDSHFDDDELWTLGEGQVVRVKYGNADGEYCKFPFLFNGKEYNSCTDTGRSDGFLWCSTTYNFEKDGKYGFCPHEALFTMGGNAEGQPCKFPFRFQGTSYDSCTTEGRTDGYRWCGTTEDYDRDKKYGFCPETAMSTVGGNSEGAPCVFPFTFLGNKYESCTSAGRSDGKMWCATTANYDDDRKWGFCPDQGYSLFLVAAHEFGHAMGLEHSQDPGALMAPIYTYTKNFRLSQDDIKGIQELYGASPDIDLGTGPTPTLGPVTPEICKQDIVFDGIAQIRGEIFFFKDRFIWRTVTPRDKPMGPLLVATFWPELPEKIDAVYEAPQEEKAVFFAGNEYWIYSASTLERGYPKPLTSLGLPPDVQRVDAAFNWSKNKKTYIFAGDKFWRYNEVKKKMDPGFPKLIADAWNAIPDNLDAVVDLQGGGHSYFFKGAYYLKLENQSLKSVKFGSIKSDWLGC

Legend:
[1] = molecular target: human Dual Specificity Protein Phosphatase 3 (DUSP3), DUSP3 (gene 1845) (UniProt P51452); experiment: NVS_ENZ_hDUSP3: NovaScreen (NVS) Enzymatic Assay for human Dual Specificity Protein Phosphatase 3 (DUSP3) (AID 2283152);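 also: phosphatase activity of recombinant human DUSP3 on a fluorogenic substrate without cells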
Procedure, shortened: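 Cell-free assay with recombinant human DUSP3 and fluorogenic substrate, read by fluorescence intensity. Primary screen ran duplicate at 25 uM; actives followed up in concentration series; loss of signal versus DMSO scored.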

[2] = molecular target: Histone deacetylase 3 (Homo sapiens) (UniProt O15379); experiment: NVS_ENZ_hHDAC3: NovaScreen (NVS) Enzymatic Assay for human Histone Deacetylase 3 (HDAC3) (AID 2283163)
Procedure, shortened: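 Recombinant human HDAC3 with fluorescent substrate, 1 h after dosing; product separated from substrate by electrophoretic mobility shift and read by fluorescence. Primary screen at 25 uM in duplicate; actives (e.g. ≥30% inhibition) retested in concentration-response up to 50 uM.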

[3] = molecular target: Glycogen synthase kinase-3 beta (Homo sapiens) (UniProt P49841); experiment: NVS_ENZ_hGSK3b: NovaScreen (NVS) Enzymatic Assay for human Glycogen Synthase Kinase-3 beta (GSK3b) (AID 2283165)
Procedure, shortened: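 Recombinant enzyme with specific fluorescent substrate, 1 h, product separated by electrophoretic mobility shift. Primary duplicate screen at 25 uM; actives (e.g. 30% inhibition) followed in singleton concentration-response to 50 uM. Signal loss fitted versus DMSO.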

[4] = molecular target: Mitogen-activated protein kinase 3 (Homo sapiens) (UniProt P27361); experiment: NVS_ENZ_hMAPK3: NovaScreen (NVS) Enzymatic Assay for human Mitogen-Activated Protein Kinase 3 (MAPK 3) (AID 2283177)
Procedure, shortened: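 Cell-free enzymatic assay with recombinant protein and specific substrate; fluorescence and electrophoretic mobility shift read-out 1 h after dosing. Primary screen duplicate at 25 uM; actives then run in concentration-response up to 50 uM, loss of signal versus DMSO.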

[5] = molecular target: human FYN Proto-Oncogene, Src family Tyrosine Kinase (Fyn), FYN (gene 2534) (UniProt P06241); experiment: NVS_ENZ_hFyn: NovaScreen (NVS) Enzymatic Assay for human FYN Proto-Oncogene, Src family Tyrosine Kinase (Fyn) (AID 2283161)
Procedure, shortened: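 Recombinant enzyme with fluorescent substrate, product separated by electrophoretic mobility shift; read 1 h after dosing. Duplicate 25 uM single-point screen, actives retested in concentration series; loss of signal vs DMSO.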

[6] = molecular target: human Insulin Receptor (InsR), INSR (gene 3643) (UniProt P06213); experiment: NVS_ENZ_hInsR: NovaScreen (NVS) Enzymatic Assay for human Insulin Receptor (InsR) (AID 2283168)
Procedure, shortened: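 Fluorescent substrate phosphorylation by recombinant kinase, product resolved by electrophoretic mobility shift, read 1 h after dosing. Screened in duplicate at 25 uM; hits (e.g., 30% inhibition) run in concentration-response to 50 uM; DMSO as baseline.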

[7] = molecular target: human Janus Kinase 2 (Jak2), JAK2 (gene 3717) (UniProt O60674); experiment: NVS_ENZ_hJak2: NovaScreen (NVS) Enzymatic Assay for human Janus Kinase 2 (Jak2) (AID 2283169)
Procedure, shortened: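 Cell-free recombinant human JAK2 enzyme activity assay, fluorescence/electrophoretic mobility shift read 1 h after dosing. Screened in duplicate at 25 uM, then concentration-response up to 50 uM; activity as signal loss relative to DMSO.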

[8] = molecular target: human LYN Proto-Oncogene, Src family Tyrosine Kinase (LynA), LYN (gene 4067) (UniProt P07948); experiment: NVS_ENZ_hLynA: NovaScreen (NVS) Enzymatic Assay for human LYN Proto-Oncogene, Src family Tyrosine Kinase (LynA) (AID 2283173)
Procedure, shortened: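 Recombinant kinase with fluorescent substrate; product separated from substrate by electrophoretic mobility shift and read 1 h after dosing. Duplicate screen at 25 uM, then concentration-response up to 50 uM; activity scored as signal loss against DMSO.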

[9] = molecular target: human Matrix Metalloproteinase-3 (MMP3), MMP3 (gene 4314) (UniProt P08254); experiment: NVS_ENZ_hMMP3: NovaScreen (NVS) Enzymatic Assay for human Matrix Metalloproteinase-3 (MMP3) (AID 2283185)
Procedure, shortened: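 Cell-free recombinant human MMP3 activity, fluorescence intensity read 1 h after dosing. Primary screen duplicate at 25 uM, actives retested in concentration series; loss of signal vs DMSO baseline.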

[10] = molecular target: human Matrix Metalloproteinase-7 (MMP7), MMP7 (gene 4316) (UniProt P09237); experiment: NVS_ENZ_hMMP7: NovaScreen (NVS) Enzymatic Assay for human Matrix Metalloproteinase-7 (MMP7) (AID 2283183)
Procedure, shortened: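 Cell-free fluorescence enzymatic assay read 1 h after compound addition, activity loss analyzed against DMSO. Primary duplicate testing at 25 uM; compounds meeting threshold rerun in singleton concentration-response up to 50 uM.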

[11] = molecular target: human MAP Kinase-Activated Protein Kinase 2 (MAPKAPK2), MAPKAPK2 (gene 9261) (UniProt P49137); experiment: NVS_ENZ_hMAPKAPK2: NovaScreen (NVS) Enzymatic Assay for human MAP Kinase-Activated Protein Kinase 2 (MAPKAPK2) (AID 2283178)
Procedure, shortened: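 Cell-free recombinant human MAPKAPK2 activity measured by fluorescence with electrophoretic mobility shift separation of substrate and product, 1 hr after dosing. Loss of signal versus DMSO; primary screen at 25 uM, concentration-response up to 50 uM.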

[12] = molecular target: human Mitogen- and Stress-activated Protein Kinase-1 (Msk1), RPS6KA5 (gene 9252) (UniProt O75582); experiment: NVS_ENZ_hMsk1: NovaScreen (NVS) Enzymatic Assay for human Mitogen- and Stress-activated Protein Kinase-1 (Msk1) (AID 2283187)
Procedure, shortened: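 Recombinant kinase with fluorescent substrate; product separated by electrophoretic mobility shift, read 1 h after dosing. Screened in duplicate at 25 uM; hits (e.g. ≥30% inhibition) tested in concentration–response up to 50 uM. DMSO baseline.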

[13] = molecular target: human Ephrin type-A Receptor 1 (EphA1), EPHA1 (gene 2041) (UniProt P21709); experiment: NVS_ENZ_hEphA1: NovaScreen (NVS) Enzymatic Assay for human Ephrin type-A Receptor 1 (EphA1) (AID 2283158);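 also: activity is signal loss versus DMSO meaning EphA1 kinase inhibition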
Procedure, shortened: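 Biochemical kinase assay run cell-free; 1 h incubation; readout is fluorescence with mobility-shift separation of product. Concentration-response up to 50 uM for actives from a 25 uM screen.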

[14] = molecular target: human c-Jun N-terminal Kinases (JNK2), MAPK9 (gene 5601) (UniProt P45984); experiment: NVS_ENZ_hJNK2: NovaScreen (NVS) Enzymatic Assay for human c-Jun N-terminal Kinases (JNK2) (AID 2283171)
Procedure, shortened: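 Cell-free recombinant human JNK2 activity assay; fluorescent substrate and product separated by electrophoretic mobility shift, read 1 h after dosing. Primary duplicate screen at 25 uM; actives run in concentration-response up to 50 uM, relative to DMSO.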

[15] = molecular target: human Matrix Metalloproteinase-2 (MMP2), MMP2 (gene 4313) (UniProt P08253); experiment: NVS_ENZ_hMMP2: NovaScreen (NVS) Enzymatic Assay for human Matrix Metalloproteinase-2 (MMP2) (AID 2283184)
Procedure, shortened: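 Cell-free recombinant MMP2 activity with a fluorescent substrate, read 1 h after dosing. Primary screen in duplicate at 25 uM; actives then run in concentration series; loss of signal fitted versus DMSO.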

Structure (SMILES): CCN(CC)C(=S)SSC(=S)N(CC)CC
- outcome [1]: inactive

Structure (SMILES): CC(C)(C)c1csc(-c2cc3cc(OCc4ccccc4CC(=O)O)ccc3o2)n1
- AC50 [2]: inconclusive: 25 µM

Structure (SMILES): Clc1nc(Cl)c(Cl)c(Cl)c1Cl
- outcome [3]: inactive

Structure (SMILES): CS(=O)(=O)c1ccc([C@@H](CC2CCCC2)C(=O)Nc2cnccn2)cc1Cl
- AC50 [4]: inconclusive: 25 µM

Structure (SMILES): CC1=C(/C=C/C(C)=C/C=C/C(C)=C/CO)C(C)(C)CCC1
- AC50 [4]: inconclusive: 26.1 µM

Structure (SMILES): Cc1[nH]nc2c1N=C(c1ccccc1Cl)c1cc([N+](=O)[O-])ccc1N2
- outcome [5]: inactive
- AC50 [3]: active: 0.00229 µM
- AC50 [6]: inconclusive: 0.245 µM
- AC50 [7]: active: 0.00328 µM
- AC50 [8]: active: 25 µM
- AC50 [4]: active: 25 µM
- AC50 [9]: inconclusive: 25 µM

Structure (SMILES): Cc1oc(-c2ccccc2)nc1CCOc1cccc2c1ccn2CCC(=O)O
- AC50 [5]: inconclusive: 7.24 µM
- outcome [10]: inactive

Structure (SMILES): Nc1nc(N)c2nc(CNc3ccc(C(=O)N[C@@H](CCC(=O)O)C(=O)O)cc3)cnc2n1
- AC50 [7]: active: 21.9 µM

Structure (SMILES): Nc1nc2ncc(CNc3ccc(C(=O)N[C@@H](CCC(=O)O)C(=O)O)cc3)nc2c(=O)[nH]1
- AC50 [3]: active: 41.1 µM
- AC50 [11]: active: 37.4 µM

Structure (SMILES): CN(C)c1ccc(N=NS(=O)(=O)O)cc1
- AC50 [5]: inconclusive: 23.8 µM
- AC50 [12]: inconclusive: 23.8 µM

Structure (SMILES): CC(C)c1ccc(C(=O)N=C(N)N)cc1S(C)(=O)=O
- outcome [2]: inactive

Structure (SMILES): O=C(OC[C@H]1O[C@@H](OC(=O)c2cc(O)c(O)c(OC(=O)c3cc(O)c(O)c(O)c3)c2)[C@H](OC(=O)c2cc(O)c(O)c(OC(=O)c3cc(O)c(O)c(O)c3)c2)[C@@H](OC(=O)c2cc(O)c(O)c(OC(=O)c3cc(O)c(O)c(O)c3)c2)[C@@H]1OC(=O)c1cc(O)c(O)c(OC(=O)c2cc(O)c(O)c(O)c2)c1)c1cc(O)c(O)c(OC(=O)c2cc(O)c(O)c(O)c2)c1
- AC50 [3]: active: 0.000698 µM

Structure (SMILES): Cc1nc(-c2ccccn2)ncc1C(=O)Nn1cc(C)c2cc(F)ccc21
- AC50 [5]: inconclusive: 1.99 µM
- AC50 [3]: inconclusive: 25 µM
- AC50 [7]: inconclusive: 0.0751 µM
- AC50 [4]: inconclusive: 44.1 µM
- AC50 [11]: inconclusive: 4.96 µM
- outcome [12]: inactive

Structure (SMILES): CCC(C)c1ccccc1O (stereo not drawn)
- outcome [2]: inactive
- AC50 [11]: inconclusive: 0.17 µM

Structure (SMILES): COS(C)(=O)=O
- AC50 [3]: inconclusive: 25 µM

Structure (SMILES): O=C(O)[C@H](O)[C@@H](O)C(=O)O
- AC50 [3]: inconclusive: 25 µM

Structure (SMILES): FC(F)(F)C(F)(F)C(F)(F)C(F)(F)C(F)(F)C(F)(F)CCI
- outcome [13]: inactive
- AC50 [11]: inconclusive: 12.5 µM

Structure (SMILES): O=C1O[C@H]([C@H](O)CO)C(O)=C1O
- AC50 [3]: inconclusive: 25 µM

Structure (SMILES): CCOCCO
- AC50 [3]: inconclusive: 25 µM

Structure (SMILES): Nc1cccc2c(N)cccc12
- outcome [2]: inactive

Structure (SMILES): COc1cc(C(=O)NC2CCN(C)CC2)ccc1Nc1ncc2c(n1)N(C1CCCC1)CC(F)(F)C(=O)N2C
- AC50 [6]: active: 0.00746 µM

Structure (SMILES): Cc1cccc(C)c1O
- AC50 [3]: inconclusive: 25 µM

Structure (SMILES): CCOC(=O)c1ccc(C2CCC(NC[C@H](O)COc3ccc(O)c(NS(C)(=O)=O)c3)CC2)cc1 (stereo partly drawn)
- AC50 [3]: inconclusive: 23.4 µM

Structure (SMILES): O=C(Nc1ccc([N+](=O)[O-])cc1Cl)c1cc(Cl)ccc1O
- AC50 [3]: inconclusive: 0.229 µM

Structure (SMILES): O=C1O[C@H]([C@@H](O)CO)C(O)=C1O
- AC50 [5]: inconclusive: 25 µM

Structure (SMILES): Cn1cnc2c1c(=O)[nH]c(=O)n2C
- AC50 [2]: inconclusive: 5.79 µM

Structure (SMILES): O=C1NC(=O)C(c2ccccc2)(c2ccccc2)N1
- AC50 [5]: inconclusive: 45.7 µM
- outcome [7]: inactive

Structure (SMILES): O=C1c2c(O)cccc2Cc2cccc(O)c21
- outcome [2]: inactive
- outcome [11]: inactive

Structure (SMILES): Cc1occc(=O)c1O
- outcome [3]: inactive

Structure (SMILES): CCCCCCCCCCCCc1ccccc1
- AC50 [2]: inconclusive: 0.0591 µM

Structure (SMILES): O=NO
- outcome [3]: inactive

Structure (SMILES): CCCCCCCCCCC
- AC50 [3]: inconclusive: 25 µM

Structure (SMILES): Nc1ccccc1N
- AC50 [3]: active: 22.3 µM

Structure (SMILES): Cc1ccc(O)cc1
- AC50 [3]: inconclusive: 25 µM

Structure (SMILES): CCCCCCCCCCCCc1ccccc1S(=O)(=O)O
- AC50 [3]: active: 14.2 µM
- AC50 [14]: active: 29.6 µM
- AC50 [4]: active: 18 µM
- AC50 [11]: active: 26.5 µM
- AC50 [12]: active: 16.8 µM

Structure (SMILES): CCOC(=O)C(C)Oc1ccc(Oc2nc3ccc(Cl)cc3o2)cc1 (stereo not drawn)
- AC50 [2]: inconclusive: 0.0434 µM

Structure (SMILES): CN1CCC[C@H]1c1cccnc1
- AC50 [2]: inconclusive: 0.978 µM
- AC50 [11]: inconclusive: 0.399 µM

Structure (SMILES): Cn1c(=O)cc(Oc2ccc(F)cc2F)c2cnc(NCC(C)(C)O)nc21
- AC50 [14]: active: 0.00703 µM

Structure (SMILES): O=C(O)c1cccnc1
- outcome [4]: inactive

Structure (SMILES): c1ccc2ncccc2c1
- AC50 [4]: inconclusive: 0.0627 µM

Structure (SMILES): C[Si]1(C)O[Si](C)(C)O[Si](C)(C)O[Si](C)(C)O1
- outcome [15]: inactive

Structure (SMILES): O=C(O)Cc1cc(I)c(Oc2ccc(O)c(I)c2)c(I)c1
- outcome [9]: inactive

Structure (SMILES): COc1cc(S(=O)(=O)O)c(C)cc1N=Nc1c(O)ccc2cc(S(=O)(=O)O)ccc12
- AC50 [9]: active: 19.2 µM

Structure (SMILES): O=C(Oc1ccccc1)c1cccc(C(=O)Oc2ccccc2)c1
- AC50 [12]: inconclusive: 7.11 µM

Structure (SMILES): COCC(C)OCC(C)O (stereo not drawn)
- outcome [12]: inactive
